Where a name gives a salt, the structure may show the parent alone. The list shows a part of the results. The calls rarely recur for the same compound in another form.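 Kinases were expressed as nanoluciferase fusions in K562 cells and luminescence was read every 4 h between 2 and 18 h as percent of control, DMSO set to 100% and a positive control to 0%. A time point counts as decreased when the signal drops significantly (2 sigma). The hit call is the authors' own, does not follow from the count of time points alone, and its rule is not shown.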
How the values were obtained:
Experiment in all cases: kinase-Nluc reporter destabilization hit call (1 = scored as downregulated) (binary); higher = compound decreases kinase abundance
Details in all cases: K562; 2-18 h
[1] = target: EGFR (UniProt P00533)
[2] = target: EGFR_G719S (UniProt P00533)
[3] = target: EGFR_G719S_T790M (UniProt P00533)
[4] = target: EGFR_L718V (UniProt P00533)
[5] = target: EGFR_L858R (UniProt P00533)
[6] = target: EGFR_L861Q (UniProt P00533)
[7] = target: EGFR_T790M (UniProt P00533)
[8] = target: EPHA2 (UniProt P29317)
[9] = target: ERBB3 (UniProt P21860)
[10] = target: ERBB4_R711C (clone: ERBB4_mut) (UniProt Q15303)

Protein sequences, listed by entry. Tags and fused reporters are not part of them.
UniProt P29317, whole entry: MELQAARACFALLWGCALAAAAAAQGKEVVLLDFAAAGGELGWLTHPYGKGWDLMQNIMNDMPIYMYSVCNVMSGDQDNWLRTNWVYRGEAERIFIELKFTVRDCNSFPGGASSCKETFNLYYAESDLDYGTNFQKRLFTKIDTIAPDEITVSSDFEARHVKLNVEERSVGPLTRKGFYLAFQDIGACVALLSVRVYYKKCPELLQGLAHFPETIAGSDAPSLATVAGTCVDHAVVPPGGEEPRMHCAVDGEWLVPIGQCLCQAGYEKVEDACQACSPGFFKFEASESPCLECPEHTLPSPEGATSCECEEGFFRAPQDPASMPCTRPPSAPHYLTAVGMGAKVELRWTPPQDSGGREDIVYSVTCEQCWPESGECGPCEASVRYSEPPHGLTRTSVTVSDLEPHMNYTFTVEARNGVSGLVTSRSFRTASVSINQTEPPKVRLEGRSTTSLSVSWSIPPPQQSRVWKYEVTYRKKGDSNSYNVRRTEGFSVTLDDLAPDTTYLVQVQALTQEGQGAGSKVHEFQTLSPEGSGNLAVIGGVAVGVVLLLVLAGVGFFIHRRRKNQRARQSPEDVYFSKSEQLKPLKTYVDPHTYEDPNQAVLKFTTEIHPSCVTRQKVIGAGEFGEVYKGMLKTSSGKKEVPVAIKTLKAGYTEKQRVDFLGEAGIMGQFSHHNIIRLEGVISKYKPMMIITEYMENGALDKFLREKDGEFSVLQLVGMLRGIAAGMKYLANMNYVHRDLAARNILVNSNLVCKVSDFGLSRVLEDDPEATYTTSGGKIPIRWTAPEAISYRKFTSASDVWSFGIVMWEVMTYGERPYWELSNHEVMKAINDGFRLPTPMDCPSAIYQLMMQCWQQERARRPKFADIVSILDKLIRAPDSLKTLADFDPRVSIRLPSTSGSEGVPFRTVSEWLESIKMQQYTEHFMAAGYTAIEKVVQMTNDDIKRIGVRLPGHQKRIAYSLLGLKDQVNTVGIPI
UniProt P21860, whole entry: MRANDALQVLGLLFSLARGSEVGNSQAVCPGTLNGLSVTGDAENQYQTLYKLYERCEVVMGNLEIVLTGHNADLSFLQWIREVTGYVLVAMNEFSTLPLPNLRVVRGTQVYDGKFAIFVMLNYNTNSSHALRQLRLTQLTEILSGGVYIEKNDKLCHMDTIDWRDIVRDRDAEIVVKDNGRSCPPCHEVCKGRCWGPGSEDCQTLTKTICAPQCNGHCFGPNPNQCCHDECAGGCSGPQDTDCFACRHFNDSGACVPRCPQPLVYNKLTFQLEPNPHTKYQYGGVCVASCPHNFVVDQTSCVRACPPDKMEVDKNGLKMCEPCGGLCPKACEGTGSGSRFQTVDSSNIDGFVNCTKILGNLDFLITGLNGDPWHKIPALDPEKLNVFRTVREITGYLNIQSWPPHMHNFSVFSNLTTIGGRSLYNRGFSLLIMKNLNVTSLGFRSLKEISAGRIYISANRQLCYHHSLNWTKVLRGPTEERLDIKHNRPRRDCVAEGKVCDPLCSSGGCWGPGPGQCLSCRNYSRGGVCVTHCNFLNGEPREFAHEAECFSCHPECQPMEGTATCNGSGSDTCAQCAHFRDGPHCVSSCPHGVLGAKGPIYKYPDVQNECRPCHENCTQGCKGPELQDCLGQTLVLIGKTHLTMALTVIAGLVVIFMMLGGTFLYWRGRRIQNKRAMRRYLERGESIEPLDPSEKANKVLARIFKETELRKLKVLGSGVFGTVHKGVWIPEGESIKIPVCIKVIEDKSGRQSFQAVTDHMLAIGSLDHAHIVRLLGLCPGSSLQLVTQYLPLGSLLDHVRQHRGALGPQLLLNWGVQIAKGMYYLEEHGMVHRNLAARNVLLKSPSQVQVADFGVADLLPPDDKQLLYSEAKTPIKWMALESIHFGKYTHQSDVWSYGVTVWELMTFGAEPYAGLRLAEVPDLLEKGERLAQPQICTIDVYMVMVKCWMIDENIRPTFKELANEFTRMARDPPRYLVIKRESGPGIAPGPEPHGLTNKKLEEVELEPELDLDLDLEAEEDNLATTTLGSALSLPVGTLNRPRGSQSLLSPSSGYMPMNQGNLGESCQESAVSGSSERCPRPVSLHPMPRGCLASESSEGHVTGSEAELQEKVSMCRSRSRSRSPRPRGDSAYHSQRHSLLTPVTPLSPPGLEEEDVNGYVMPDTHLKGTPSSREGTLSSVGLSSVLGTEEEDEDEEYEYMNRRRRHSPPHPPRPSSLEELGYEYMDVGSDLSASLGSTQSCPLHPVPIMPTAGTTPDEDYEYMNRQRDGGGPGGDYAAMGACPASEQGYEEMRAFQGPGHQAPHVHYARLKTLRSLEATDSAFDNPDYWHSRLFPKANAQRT
UniProt Q15303, whole entry R711C: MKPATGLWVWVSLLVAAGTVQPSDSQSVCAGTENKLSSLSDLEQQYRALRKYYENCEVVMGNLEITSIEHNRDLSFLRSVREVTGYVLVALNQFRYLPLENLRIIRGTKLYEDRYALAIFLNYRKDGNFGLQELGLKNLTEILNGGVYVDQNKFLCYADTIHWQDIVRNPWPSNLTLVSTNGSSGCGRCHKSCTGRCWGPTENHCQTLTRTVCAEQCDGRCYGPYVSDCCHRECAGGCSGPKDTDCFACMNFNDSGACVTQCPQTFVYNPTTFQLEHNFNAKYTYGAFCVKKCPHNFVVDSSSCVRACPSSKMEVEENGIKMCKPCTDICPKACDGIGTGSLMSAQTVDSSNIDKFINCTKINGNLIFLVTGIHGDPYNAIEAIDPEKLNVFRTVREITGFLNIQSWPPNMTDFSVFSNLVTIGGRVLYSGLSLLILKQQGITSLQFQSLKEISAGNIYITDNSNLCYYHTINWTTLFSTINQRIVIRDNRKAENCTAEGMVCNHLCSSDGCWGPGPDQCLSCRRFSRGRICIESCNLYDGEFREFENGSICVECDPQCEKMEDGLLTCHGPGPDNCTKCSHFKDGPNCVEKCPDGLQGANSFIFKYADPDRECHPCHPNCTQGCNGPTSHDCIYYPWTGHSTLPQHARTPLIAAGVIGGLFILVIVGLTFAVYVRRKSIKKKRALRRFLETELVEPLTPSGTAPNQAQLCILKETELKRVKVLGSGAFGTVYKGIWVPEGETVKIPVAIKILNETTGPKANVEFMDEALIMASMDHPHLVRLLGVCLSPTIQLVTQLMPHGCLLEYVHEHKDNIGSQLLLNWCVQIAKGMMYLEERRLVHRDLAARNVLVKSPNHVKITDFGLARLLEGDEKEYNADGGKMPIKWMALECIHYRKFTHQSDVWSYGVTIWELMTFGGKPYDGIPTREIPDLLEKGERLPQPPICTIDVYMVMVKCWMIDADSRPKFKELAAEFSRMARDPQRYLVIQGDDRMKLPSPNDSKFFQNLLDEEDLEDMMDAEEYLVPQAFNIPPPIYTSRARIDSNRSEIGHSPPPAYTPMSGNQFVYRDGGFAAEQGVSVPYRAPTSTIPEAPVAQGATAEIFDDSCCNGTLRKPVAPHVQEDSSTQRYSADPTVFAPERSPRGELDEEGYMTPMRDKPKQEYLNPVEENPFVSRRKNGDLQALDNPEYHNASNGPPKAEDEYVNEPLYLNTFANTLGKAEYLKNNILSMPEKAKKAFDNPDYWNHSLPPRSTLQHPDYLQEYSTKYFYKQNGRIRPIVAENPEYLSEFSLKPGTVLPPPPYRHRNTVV

Measured: kinase-Nluc reporter destabilization hit call

COC(=O)Nc1ccc(-c2nc(N3CCOCC3)c3cnn(C4CCN(Cc5cccnc5)CC4)c3n2)cc1 (10 µM)
inactive: [1] 0 | [2] 0 | [3] 0 | [4] 0 | [5] 0 | [6] 0 | [7] 0 | [8] 0 | [9] 0 | [10] 0

CC(C)n1c([C@H](C)Nc2ncnc(N)c2C#N)cc2cccc(-c3ccc(=O)n(C)c3)c2c1=O (10 µM)
inactive: [1] 0 | [2] 0 | [3] 0 | [4] 0 | [5] 0 | [6] 0 | [7] 0 | [8] 0 | [9] 0 | [10] 0

C=CC(=O)N1CC[C@@H](Oc2nc(Nc3ccc(N4CCC(N5CCN(C)CC5)CC4)cc3)c(C(N)=O)nc2CC)C1 [Naquotinib (mesylate)] (2.5 µM)
inactive: [1] 0 | [2] 0 | [3] 0 | [4] 0 | [5] 0 | [6] 0 | [7] 0 | [8] 0 | [9] 0 | [10] 0

c1ccc(Cn2c(-c3ccc(OC[C@H](C4CCNCC4)n4c(-c5ccccc5)nc5ccccc54)cc3)nc3ccccc32)cc1 [Deltarasin] (2.5 µM)
inactive: [1] 0 | [2] 0 | [3] 0 | [4] 0 | [5] 0 | [6] 0 | [7] 0 | [8] 0 | [9] 0 | [10] 0

CNC(=O)c1ccc2c(c1)ncn2-c1ccc(CC(=O)OC(C)(C)C)cc1 (10 µM)
inactive: [1] 0 | [2] 0 | [3] 0 | [4] 0 | [5] 0 | [6] 0 | [7] 0 | [8] 0 | [9] 0 | [10] 0

Cc1ccc(-n2nc(C(C)(C)C)cc2NC(=O)Nc2ccc(OCCN3CCOCC3)cc2)cc1 (10 µM)
inactive: [1] 0 | [2] 0 | [3] 0 | [4] 0 | [5] 0 | [6] 0 | [7] 0 | [8] 0 | [9] 0 | [10] 0

O=C(O)c1ccc(/C=C/S(=O)(=O)Cc2ccc(Cl)cc2)cc1 [Recilisib] (10 µM)
inactive: [1] 0 | [2] 0 | [3] 0 | [4] 0 | [5] 0 | [6] 0 | [7] 0 | [8] 0 | [9] 0 | [10] 0

CNC(=O)c1cc2c(Oc3ccc(NC(=O)C4(C(=O)Nc5ccc(F)cc5)CC4)cc3)ccnc2cc1OC (2.5 µM)
inactive: [1] 0 | [2] 0 | [3] 0 | [4] 0 | [5] 0 | [6] 0 | [7] 0 | [8] 0 | [9] 0 | [10] 0

COc1ccc2c3n(c(=NC(=O)c4cccnc4)nc2c1OC)CCN3 (2 µM)
inactive: [1] 0 | [2] 0 | [3] 0 | [4] 0 | [5] 0 | [6] 0 | [7] 0 | [8] 0 | [9] 0 | [10] 0

Fc1ccc2[nH]ccc2c1-c1nc(N2CCOCC2)c2sc(CN3CCN(CC4CC4)CC3)cc2n1 (10 µM)
inactive: [1] 0 | [2] 0 | [3] 0 | [4] 0 | [5] 0 | [6] 0 | [7] 0 | [8] 0 | [9] 0 | [10] 0

C=CC(=O)Nc1ccc(C(=O)Nc2[nH]nc3c2CN(C(=O)N[C@H](CN(C)C)c2ccccc2)C3(C)C)cc1 (10 µM)
inactive: [1] 0 | [2] 0 | [3] 0 | [4] 0 | [5] 0 | [6] 0 | [7] 0 | [8] 0 | [9] 0 | [10] 0

COc1c(O)cc2oc(-c3ccc(O)cc3)cc(=O)c2c1O [Hispidulin] (10 µM)
inactive: [1] 0 | [2] 0 | [3] 0 | [4] 0 | [5] 0 | [6] 0 | [7] 0 | [8] 0 | [9] 0 | [10] 0

O=c1cc(-c2ccccc2)oc2cc(O[C@@H]3O[C@H](CO[C@@H]4O[C@H](CO)[C@@H](O)[C@H](O)[C@H]4O)[C@@H](O)[C@H](O)[C@H]3O)c(O)c(O)c12 [Oroxin B] (10 µM)
inactive: [1] 0 | [2] 0 | [3] 0 | [4] 0 | [5] 0 | [6] 0 | [7] 0 | [8] 0 | [9] 0 | [10] 0

COc1ccc(S(=O)(=O)Nc2cc(-c3c(O)ccc4ccccc34)c(O)c3ccccc23)cc1 (10 µM)
inactive: [1] 0 | [2] 0 | [3] 0 | [4] 0 | [5] 0 | [6] 0 | [7] 0 | [8] 0 | [9] 0 | [10] 0

COc1ccc(Br)cc1NC(=O)Nc1cccc2c1ccn2Cc1ccnc(N)c1 (2.5 µM)
inactive: [1] 0 | [2] 0 | [3] 0 | [4] 0 | [5] 0 | [6] 0 | [7] 0 | [8] 0 | [9] 0 | [10] 0

CC1CN(CC2CCN(Cc3ccccc3)CC2)C(=O)N(c2cccc(C(=N)N)c2)C1 (stereo not given) (10 µM)
inactive: [1] 0 | [2] 0 | [3] 0 | [4] 0 | [5] 0 | [6] 0 | [7] 0 | [8] 0 | [9] 0 | [10] 0

CCC(=O)Nc1cccc(Oc2nc(Nc3ccc(N4CCN(C)CC4)cc3OC)ncc2Cl)c1 (10 µM)
inactive: [1] 0 | [2] 0 | [3] 0 | [4] 0 | [5] 0 | [6] 0 | [7] 0 | [8] 0 | [9] 0 | [10] 0

COc1cc(N2CCOCC2)ccc1Nc1ncc(F)c(Nc2ccccc2NS(C)(=O)=O)n1 (10 µM)
inactive: [1] 0 | [2] 0 | [3] 0 | [4] 0 | [5] 0 | [6] 0 | [7] 0 | [8] 0 | [9] 0 | [10] 0

Cn1ncc(NC(=O)c2nc(-c3c(F)cccc3F)sc2N)c1N1CC[C@@H](N)[C@H](F)CC1 (10 µM)
inactive: [1] 0 | [2] 0 | [3] 0 | [4] 0 | [5] 0 | [6] 0 | [7] 0 | [8] 0 | [9] 0 | [10] 0

CCCCCc1ccc(/C=C/[C@H](O)[C@@H](CO)NC)cc1 [SK1-I (hydrochloride)] (10 µM)
inactive: [1] 0 | [2] 0 | [3] 0 | [4] 0 | [5] 0 | [6] 0 | [7] 0 | [8] 0 | [9] 0 | [10] 0

Oc1c(F)cc(-c2cnccc2-c2ccc(N3CCOCC3)cc2)cc1F (10 µM)
inactive: [1] 0 | [2] 0 | [3] 0 | [4] 0 | [5] 0 | [6] 0 | [7] 0 | [8] 0 | [9] 0 | [10] 0

O=C(O)[C@H]1O[C@@H](Oc2cc3oc(-c4ccc(O)cc4)cc(=O)c3c(O)c2O)[C@H](O)[C@@H](O)[C@@H]1O [Scutellarin] (10 µM)
inactive: [1] 0 | [2] 0 | [3] 0 | [4] 0 | [5] 0 | [6] 0 | [7] 0 | [8] 0 | [9] 0 | [10] 0

COc1cc2c(cc1Nc1ncc(C(N)=O)c(Nc3c(F)cccc3C(F)(F)F)n1)CN(C)CC2 (2.5 µM)
inactive: [1] 0 | [2] 0 | [3] 0 | [4] 0 | [5] 0 | [6] 0 | [7] 0 | [8] 0 | [9] 0 | [10] 0

CC(C)[C@H](CO)Nc1nc(Nc2cccc(Cl)c2)c2ncn(C(C)C)c2n1 [Purvalanol A] (10 µM)
inactive: [1] 0 | [2] 0 | [3] 0 | [4] 0 | [5] 0 | [6] 0 | [7] 0 | [8] 0 | [9] 0 | [10] 0

Cc1cc([C@@H](C)Nc2ccccc2C(=O)O)c2nc(N3CCOCC3)cc(=O)n2c1 (10 µM)
inactive: [1] 0 | [2] 0 | [3] 0 | [4] 0 | [5] 0 | [6] 0 | [7] 0 | [8] 0 | [9] 0 | [10] 0

CN(C)c1ccc(-c2nc3ncc(Cl)c(N4CCN(CC(=O)Nc5nccs5)CC4)c3[nH]2)cc1 (2 µM)
inactive: [1] 0 | [2] 0 | [3] 0 | [4] 0 | [5] 0 | [6] 0 | [7] 0 | [8] 0 | [9] 0 | [10] 0

N#Cc1ccc(-c2cnc3[nH]cc(NC(=O)c4cccnc4)c3c2)cc1 (10 µM)
inactive: [1] 0 | [2] 0 | [3] 0 | [4] 0 | [5] 0 | [6] 0 | [7] 0 | [8] 0 | [9] 0 | [10] 0

O=C(Nc1cccc(-c2nc(-c3ccc(NC(=O)c4cccnc4)cc3Cl)no2)c1)Nc1ccc(NC(=O)C2CC2)c(C(F)(F)F)c1 (2.5 µM)
inactive: [1] 0 | [2] 0 | [3] 0 | [4] 0 | [5] 0 | [6] 0 | [7] 0 | [8] 0 | [9] 0 | [10] 0

A draw from above in order of count of non-hydrogen atoms, high to low.
O=C(Nc1cccc(-c2nc(-c3ccc(NC(=O)c4cccnc4)cc3Cl)no2)c1)Nc1ccc(NC(=O)C2CC2)c(C(F)(F)F)c1 (2.5 µM)
inactive: [1] 0 | [2] 0 | [3] 0 | [4] 0 | [5] 0 | [6] 0 | [7] 0 | [8] 0 | [9] 0 | [10] 0

CN(C)c1ccc(-c2nc3ncc(Cl)c(N4CCN(CC(=O)Nc5nccs5)CC4)c3[nH]2)cc1 (2 µM)
inactive: [1] 0 | [2] 0 | [3] 0 | [4] 0 | [5] 0 | [6] 0 | [7] 0 | [8] 0 | [9] 0 | [10] 0

Cc1cc([C@@H](C)Nc2ccccc2C(=O)O)c2nc(N3CCOCC3)cc(=O)n2c1 (10 µM)
inactive: [1] 0 | [2] 0 | [3] 0 | [4] 0 | [5] 0 | [6] 0 | [7] 0 | [8] 0 | [9] 0 | [10] 0

Continued.

O=C(ON=C1c2ccccc2-c2nc3ccccc3nc21)c1ccco1 (2.5 µM)
inactive: [1] 0 | [2] 0 | [3] 0 | [4] 0 | [5] 0 | [6] 0 | [7] 0 | [8] 0 | [9] 0 | [10] 0

Cn1cc(-c2cc(Oc3cc(F)c(NC(=O)C4(C(=O)Nc5ccccc5)CC4)cc3F)ccn2)cn1 (2.5 µM)
inactive: [1] 0 | [2] 0 | [3] 0 | [4] 0 | [5] 0 | [6] 0 | [7] 0 | [8] 0 | [9] 0 | [10] 0

O=c1[nH]ccc2nc(-c3ccc(CN4CCC(c5nc(-c6ccccn6)n[nH]5)CC4)cc3)c(-c3ccccc3)cc12 (10 µM)
inactive: [1] 0 | [2] 0 | [3] 0 | [4] 0 | [5] 0 | [6] 0 | [7] 0 | [8] 0 | [9] 0 | [10] 0

CCN(CC)CCCC(C)Nc1nc(C)cc(Nc2ccc3nc(C)cc(N)c3c2)n1 (stereo not given) (10 µM)
inactive: [1] 0 | [2] 0 | [3] 0 | [4] 0 | [5] 0 | [6] 0 | [7] 0 | [8] 0 | [9] 0 | [10] 0

Cc1cccc(/C=N/Nc2cc(N3CCOCC3)n3nc(-c4ccncc4)cc3n2)c1 (10 µM)
inactive: [1] 0 | [2] 0 | [3] 0 | [4] 0 | [5] 0 | [6] 0 | [7] 0 | [8] 0 | [9] 0 | [10] 0

— the supplement of paper PMC12823440, “Inhibitors supercharge kinase turnover through native proteolytic circuits” (Nature, 2025)
